Patent publication US20250197248A1, “WATER TREATMENT SYSTEM” (KEMIRA OYJ, priority 2022, published 2025)

Experiment: Pilot run at a wastewater treatment plant, online monitoring of residual PFA (Hach Cl-17)
Conditions: 15 min retention, monitored over 22 hours

O=COO [PFA, performic acid]
residual PFA concentration (controlled dosing, target 0.5 ppm, FIG. 6A): ~0.5 ppm | residual PFA concentration, highest values (fixed dose 1.2 ppm, FIG. 6B): about 0.9 ppm
